Results are given in words; binding and its absence hold for the method and conditions named. Some results given as binding are weak or reduced against the parent protein; the word gives no strength.

The chains behind the UniProt entries cited, without tags or fusion partners. Residues count along the entry.
UniProt P97798, residues 37-1136: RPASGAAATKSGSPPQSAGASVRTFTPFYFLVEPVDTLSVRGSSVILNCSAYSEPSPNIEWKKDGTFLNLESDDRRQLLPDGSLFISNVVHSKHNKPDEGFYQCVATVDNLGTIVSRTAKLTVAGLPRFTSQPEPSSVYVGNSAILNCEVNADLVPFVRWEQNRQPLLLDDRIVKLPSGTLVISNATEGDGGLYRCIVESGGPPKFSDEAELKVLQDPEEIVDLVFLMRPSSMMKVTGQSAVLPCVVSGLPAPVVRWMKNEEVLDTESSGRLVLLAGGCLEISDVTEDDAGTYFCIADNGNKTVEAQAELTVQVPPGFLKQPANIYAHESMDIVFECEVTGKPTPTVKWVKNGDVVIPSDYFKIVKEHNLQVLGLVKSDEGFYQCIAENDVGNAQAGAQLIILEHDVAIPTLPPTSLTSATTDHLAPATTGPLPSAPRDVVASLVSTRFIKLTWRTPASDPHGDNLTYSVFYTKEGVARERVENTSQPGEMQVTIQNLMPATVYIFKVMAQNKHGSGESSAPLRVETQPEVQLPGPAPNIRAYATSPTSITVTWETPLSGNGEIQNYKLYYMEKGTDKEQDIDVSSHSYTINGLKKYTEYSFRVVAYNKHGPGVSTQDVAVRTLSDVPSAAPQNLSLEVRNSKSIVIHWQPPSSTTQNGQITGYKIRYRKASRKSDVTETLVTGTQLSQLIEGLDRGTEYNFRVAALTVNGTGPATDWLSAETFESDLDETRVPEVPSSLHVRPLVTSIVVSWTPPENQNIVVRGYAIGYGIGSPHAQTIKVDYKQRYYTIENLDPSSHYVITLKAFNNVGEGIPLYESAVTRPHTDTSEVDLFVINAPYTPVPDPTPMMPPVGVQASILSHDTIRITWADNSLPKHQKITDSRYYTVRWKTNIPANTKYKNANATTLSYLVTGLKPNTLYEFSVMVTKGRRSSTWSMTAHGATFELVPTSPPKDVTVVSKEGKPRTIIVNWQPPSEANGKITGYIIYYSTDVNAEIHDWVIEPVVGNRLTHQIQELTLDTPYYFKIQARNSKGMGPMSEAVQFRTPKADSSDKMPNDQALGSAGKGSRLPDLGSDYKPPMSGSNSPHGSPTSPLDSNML
UniProt Q90923, residues 16-581: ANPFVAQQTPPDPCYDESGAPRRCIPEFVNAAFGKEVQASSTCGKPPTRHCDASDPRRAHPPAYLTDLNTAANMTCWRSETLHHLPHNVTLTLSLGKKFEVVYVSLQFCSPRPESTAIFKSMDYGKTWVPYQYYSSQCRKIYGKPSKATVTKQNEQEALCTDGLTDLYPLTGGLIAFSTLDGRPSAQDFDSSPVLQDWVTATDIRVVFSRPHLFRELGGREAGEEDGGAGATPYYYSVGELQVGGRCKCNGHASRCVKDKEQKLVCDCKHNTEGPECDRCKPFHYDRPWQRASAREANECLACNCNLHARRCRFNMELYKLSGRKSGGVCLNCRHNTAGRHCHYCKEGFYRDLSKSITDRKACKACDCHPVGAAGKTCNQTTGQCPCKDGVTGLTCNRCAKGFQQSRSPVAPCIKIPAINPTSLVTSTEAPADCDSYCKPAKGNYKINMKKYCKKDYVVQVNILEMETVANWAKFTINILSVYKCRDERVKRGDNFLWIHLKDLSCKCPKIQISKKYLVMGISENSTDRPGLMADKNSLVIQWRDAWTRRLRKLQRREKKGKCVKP

The source of these data is article PMC8033513.

The experiment has as its target extra‐cellular domain (ECD) of mouse Neogenin (mouse) (UniProt P97798). Briefly: BLI; OctetRED96; ECDs of mNeogenin or mDCC coated on AHC biosensors, hNetrin-1 or chNetrin-2 in solution at 3.12-100 nM; 30°C, PBS, 0.02% Tween-20, 0.1% BSA with 1 µg/ml Dextran 5,000; 1:1 binding model; both purified. In general terms: In BLI a coated tip is dipped into the sample, and binding shifts an interference pattern.

Consider “chicken netrin‐2L (netrin‐2‐like) (from UniProt Q90923 16-581) (ligand)”, for which the binding result was “binds”.
